The values below come from the supplement of paper PMC6411743.

The chains behind the UniProt entries cited, without tags or fusion partners. Where a name states a change or a piece, a line headed by the entry shows the natural chain unless it says otherwise.
UniProt Q9NVA2: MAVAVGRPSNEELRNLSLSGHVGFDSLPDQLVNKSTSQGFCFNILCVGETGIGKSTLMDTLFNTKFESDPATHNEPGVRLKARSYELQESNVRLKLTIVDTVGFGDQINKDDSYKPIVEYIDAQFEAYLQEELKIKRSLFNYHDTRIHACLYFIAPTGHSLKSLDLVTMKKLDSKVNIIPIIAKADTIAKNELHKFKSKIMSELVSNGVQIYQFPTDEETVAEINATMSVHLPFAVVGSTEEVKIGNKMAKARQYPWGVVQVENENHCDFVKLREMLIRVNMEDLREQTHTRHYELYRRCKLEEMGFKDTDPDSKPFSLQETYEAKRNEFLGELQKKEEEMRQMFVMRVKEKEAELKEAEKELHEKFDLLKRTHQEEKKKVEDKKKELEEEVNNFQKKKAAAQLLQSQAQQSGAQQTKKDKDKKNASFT
UniProt Q9Y6K9, whole entry: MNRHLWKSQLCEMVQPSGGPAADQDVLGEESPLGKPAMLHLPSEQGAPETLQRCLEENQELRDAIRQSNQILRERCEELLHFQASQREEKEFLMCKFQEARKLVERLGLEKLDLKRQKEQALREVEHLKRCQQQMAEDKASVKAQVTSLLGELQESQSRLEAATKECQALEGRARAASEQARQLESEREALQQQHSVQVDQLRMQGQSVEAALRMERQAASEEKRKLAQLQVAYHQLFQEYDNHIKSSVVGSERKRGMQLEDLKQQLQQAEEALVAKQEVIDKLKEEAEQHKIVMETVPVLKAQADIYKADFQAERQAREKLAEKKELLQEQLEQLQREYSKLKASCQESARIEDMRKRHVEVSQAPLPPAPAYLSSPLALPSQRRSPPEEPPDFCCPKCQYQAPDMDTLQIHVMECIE
UniProt P98194: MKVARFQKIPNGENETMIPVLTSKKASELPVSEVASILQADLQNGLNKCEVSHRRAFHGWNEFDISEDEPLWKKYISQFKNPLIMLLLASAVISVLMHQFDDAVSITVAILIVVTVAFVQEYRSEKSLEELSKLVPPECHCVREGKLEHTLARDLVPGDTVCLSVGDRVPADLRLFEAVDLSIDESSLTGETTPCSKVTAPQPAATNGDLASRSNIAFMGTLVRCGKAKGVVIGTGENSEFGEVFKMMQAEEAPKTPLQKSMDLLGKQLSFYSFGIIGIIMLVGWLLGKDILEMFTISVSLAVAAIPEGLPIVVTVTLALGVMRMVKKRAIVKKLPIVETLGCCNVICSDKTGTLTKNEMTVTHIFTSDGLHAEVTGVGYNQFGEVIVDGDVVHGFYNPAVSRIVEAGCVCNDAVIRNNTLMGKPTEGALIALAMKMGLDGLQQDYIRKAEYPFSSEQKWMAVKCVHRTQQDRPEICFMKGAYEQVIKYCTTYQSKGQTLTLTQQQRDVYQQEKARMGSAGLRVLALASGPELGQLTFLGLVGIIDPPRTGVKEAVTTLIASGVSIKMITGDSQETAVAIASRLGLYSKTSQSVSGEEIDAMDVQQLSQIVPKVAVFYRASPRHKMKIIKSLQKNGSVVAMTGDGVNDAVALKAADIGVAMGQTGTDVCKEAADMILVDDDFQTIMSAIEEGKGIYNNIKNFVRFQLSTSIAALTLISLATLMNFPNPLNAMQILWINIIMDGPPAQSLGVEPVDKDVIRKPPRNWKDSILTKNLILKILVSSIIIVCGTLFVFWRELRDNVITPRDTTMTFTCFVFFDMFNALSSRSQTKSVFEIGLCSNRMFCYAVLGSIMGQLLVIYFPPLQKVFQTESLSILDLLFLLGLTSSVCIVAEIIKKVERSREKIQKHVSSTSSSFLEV
UniProt Q9BUN8: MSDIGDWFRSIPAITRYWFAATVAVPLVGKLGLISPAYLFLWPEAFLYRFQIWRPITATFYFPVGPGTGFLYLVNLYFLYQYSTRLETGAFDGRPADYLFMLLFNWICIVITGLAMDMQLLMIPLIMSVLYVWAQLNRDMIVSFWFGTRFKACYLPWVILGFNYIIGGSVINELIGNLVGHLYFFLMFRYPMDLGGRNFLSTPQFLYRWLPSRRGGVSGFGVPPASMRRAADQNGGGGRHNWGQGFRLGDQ
UniProt Q9UNL2: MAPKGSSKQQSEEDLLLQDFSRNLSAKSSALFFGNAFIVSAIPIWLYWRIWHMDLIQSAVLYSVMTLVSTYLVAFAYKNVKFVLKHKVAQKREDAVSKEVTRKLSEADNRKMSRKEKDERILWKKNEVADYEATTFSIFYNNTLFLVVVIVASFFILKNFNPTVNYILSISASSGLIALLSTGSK
UniProt P01040: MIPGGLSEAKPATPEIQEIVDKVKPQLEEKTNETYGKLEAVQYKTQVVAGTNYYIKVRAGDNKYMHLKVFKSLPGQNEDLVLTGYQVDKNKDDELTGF
UniProt Q8NCN5: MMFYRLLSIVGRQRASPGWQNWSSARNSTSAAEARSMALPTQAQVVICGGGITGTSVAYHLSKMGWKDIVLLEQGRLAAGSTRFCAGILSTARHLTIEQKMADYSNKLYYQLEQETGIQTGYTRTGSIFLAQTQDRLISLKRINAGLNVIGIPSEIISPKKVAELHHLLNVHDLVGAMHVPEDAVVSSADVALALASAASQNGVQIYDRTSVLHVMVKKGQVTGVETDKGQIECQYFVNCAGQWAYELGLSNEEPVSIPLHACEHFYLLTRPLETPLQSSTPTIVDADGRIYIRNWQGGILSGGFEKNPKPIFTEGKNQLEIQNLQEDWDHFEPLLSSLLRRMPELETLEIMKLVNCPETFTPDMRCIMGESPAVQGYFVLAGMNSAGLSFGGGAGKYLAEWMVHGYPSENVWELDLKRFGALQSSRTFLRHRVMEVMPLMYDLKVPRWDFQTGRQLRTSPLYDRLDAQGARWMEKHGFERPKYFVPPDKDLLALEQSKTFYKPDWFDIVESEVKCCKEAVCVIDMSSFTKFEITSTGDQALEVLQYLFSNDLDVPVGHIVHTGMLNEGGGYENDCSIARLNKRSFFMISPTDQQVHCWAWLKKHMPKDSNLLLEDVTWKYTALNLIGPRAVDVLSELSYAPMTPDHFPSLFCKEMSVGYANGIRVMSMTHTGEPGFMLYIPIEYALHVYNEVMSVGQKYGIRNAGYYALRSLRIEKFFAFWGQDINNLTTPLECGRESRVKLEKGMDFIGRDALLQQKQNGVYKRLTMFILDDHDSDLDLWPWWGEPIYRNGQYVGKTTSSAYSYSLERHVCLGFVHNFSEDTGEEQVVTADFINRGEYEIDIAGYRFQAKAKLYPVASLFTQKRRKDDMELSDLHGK
UniProt A8MPS7: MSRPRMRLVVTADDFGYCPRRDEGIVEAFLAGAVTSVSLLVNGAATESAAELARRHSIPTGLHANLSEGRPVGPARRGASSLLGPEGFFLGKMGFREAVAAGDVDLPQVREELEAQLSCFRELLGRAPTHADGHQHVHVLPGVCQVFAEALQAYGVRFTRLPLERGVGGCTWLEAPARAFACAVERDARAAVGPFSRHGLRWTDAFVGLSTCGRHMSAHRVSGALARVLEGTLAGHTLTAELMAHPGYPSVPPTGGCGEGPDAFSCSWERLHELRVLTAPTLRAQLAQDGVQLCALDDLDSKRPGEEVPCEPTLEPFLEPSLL
UniProt P43897: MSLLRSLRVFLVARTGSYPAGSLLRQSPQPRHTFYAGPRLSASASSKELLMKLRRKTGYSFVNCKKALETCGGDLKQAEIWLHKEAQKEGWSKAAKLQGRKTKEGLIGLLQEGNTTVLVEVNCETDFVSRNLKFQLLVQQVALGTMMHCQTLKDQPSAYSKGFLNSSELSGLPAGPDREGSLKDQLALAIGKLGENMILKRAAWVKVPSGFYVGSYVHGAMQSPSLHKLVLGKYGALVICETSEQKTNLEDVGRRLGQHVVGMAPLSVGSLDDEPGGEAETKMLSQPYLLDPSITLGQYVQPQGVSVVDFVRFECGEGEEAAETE
UniProt Q96A25: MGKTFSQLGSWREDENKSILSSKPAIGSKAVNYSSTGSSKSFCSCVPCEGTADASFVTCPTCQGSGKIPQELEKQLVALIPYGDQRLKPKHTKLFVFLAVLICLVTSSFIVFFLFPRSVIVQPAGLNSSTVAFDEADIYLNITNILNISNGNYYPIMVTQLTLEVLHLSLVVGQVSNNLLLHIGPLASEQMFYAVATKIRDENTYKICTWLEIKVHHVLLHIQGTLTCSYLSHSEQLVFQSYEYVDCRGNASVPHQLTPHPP
UniProt Q96HP4: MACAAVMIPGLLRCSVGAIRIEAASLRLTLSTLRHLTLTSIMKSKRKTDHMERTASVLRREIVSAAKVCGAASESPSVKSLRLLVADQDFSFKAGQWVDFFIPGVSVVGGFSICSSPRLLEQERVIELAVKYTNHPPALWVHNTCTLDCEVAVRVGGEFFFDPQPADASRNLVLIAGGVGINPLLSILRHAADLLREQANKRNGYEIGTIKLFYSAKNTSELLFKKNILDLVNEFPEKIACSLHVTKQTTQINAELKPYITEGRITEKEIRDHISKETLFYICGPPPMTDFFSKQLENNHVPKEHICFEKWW
UniProt A8MWD9, whole entry, looked up: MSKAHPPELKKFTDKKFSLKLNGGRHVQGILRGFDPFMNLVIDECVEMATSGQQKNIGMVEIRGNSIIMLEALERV
UniProt P62308, whole entry, looked up: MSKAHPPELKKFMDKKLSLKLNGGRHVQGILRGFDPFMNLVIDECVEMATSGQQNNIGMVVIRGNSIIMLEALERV
UniProt A6NIH7: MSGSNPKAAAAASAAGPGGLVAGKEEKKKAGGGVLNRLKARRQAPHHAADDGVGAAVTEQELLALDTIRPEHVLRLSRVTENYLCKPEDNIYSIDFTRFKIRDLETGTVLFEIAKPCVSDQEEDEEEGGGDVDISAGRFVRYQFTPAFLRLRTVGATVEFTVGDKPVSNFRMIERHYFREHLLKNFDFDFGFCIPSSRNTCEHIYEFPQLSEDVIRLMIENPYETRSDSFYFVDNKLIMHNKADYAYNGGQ
UniProt A5PLN9: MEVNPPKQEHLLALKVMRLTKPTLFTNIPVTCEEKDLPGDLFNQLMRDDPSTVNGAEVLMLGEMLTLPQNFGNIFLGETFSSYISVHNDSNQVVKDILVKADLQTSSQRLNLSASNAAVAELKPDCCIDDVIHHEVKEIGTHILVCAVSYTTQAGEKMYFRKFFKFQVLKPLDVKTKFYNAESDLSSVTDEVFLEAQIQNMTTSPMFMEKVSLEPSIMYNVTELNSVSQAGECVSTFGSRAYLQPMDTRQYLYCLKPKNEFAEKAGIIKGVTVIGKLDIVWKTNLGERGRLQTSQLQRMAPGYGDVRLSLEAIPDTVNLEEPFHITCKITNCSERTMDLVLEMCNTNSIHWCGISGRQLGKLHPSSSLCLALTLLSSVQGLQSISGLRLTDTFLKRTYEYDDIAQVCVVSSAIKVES
UniProt Q86WB0: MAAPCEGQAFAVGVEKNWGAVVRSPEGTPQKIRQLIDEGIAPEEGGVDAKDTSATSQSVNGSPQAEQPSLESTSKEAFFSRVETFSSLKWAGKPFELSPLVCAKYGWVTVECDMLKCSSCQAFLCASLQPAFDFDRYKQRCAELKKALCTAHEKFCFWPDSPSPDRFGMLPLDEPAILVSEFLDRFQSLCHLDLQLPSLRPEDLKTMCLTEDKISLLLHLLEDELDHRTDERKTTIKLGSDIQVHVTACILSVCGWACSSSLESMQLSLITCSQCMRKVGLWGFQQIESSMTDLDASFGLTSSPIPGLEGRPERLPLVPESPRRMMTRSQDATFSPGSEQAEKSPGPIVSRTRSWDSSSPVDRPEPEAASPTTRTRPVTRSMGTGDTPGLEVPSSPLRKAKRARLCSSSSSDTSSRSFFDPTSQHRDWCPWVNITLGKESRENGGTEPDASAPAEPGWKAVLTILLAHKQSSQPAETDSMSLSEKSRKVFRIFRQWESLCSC
UniProt Q9BT40: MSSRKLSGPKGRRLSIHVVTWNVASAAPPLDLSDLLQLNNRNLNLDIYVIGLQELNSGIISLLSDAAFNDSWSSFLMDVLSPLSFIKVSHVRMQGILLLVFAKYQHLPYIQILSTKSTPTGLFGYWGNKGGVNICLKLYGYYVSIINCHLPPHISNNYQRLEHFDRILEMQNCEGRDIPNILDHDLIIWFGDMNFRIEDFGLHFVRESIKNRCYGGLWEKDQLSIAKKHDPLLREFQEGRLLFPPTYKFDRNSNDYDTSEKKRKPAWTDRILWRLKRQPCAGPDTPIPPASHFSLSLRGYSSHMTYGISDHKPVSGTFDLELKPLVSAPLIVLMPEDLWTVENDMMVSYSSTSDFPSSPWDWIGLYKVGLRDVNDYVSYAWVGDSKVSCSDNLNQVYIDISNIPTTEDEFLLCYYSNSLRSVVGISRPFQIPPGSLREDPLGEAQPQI
UniProt Q96MH6: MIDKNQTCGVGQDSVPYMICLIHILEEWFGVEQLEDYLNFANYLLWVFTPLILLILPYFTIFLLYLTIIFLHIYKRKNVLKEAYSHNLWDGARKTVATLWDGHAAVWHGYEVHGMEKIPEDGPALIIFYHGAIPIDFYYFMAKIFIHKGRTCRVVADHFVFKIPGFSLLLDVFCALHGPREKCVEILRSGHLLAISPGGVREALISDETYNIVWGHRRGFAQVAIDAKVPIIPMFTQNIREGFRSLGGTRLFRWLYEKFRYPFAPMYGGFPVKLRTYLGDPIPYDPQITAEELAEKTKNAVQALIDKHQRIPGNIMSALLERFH

± gives the standard deviation of the averaged measurements. Only a part is listed here, and it is no random draw. Most values lie at the level of the controls, where differences are scatter.

Compound in the first experiment: Nc1ncnc2c1ncn2[C@@H]1O[C@H](COP(=O)(O)OP(=O)(O)NP(=O)(O)O)[C@@H](O)[C@H]1O [adenylyl imidodiphosphate]
In words: NP40-soluble protein abundance relative to vehicle (solubility fold change) (ratio); higher = more soluble protein in presence of AMP-PNP. The settings on record: concentration: 0.1mM. The essentials:
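In three independent experiments, Jurkat crude lysate made by Dounce homogenisation was treated for 10 min at room temperature and then 3 min at 37 °C with eight concentrations ranging from 0.1 to 10 mM. It was then solubilised with 0.8% NP40 plus benzonase for 60 min at 4 °C and ultracentrifuged. The supernatant was TMT-labelled for LC-MS/MS, and each value is the fold change against the detergent-processed vehicle for the same replicate, using vsn-normalised intensities.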
As to “B4DZS0 and related entries (UniProt O76075)”, the NP40-soluble protein abundance worked out at 1 ± 0.035.
In the case of “D6RER5 and related entries (UniProt Q9NVA2)”, the NP40-soluble protein abundance was 0.97 ± 0.023.
For “C9J0Q5 and related entries (UniProt Q9Y618)”, the NP40-soluble protein abundance came to 1 ± 0.014.
Same read-out and setting: under “C9J2V2 and related entries (UniProt Q9Y6K9)” stands 1 ± 0.042; under “B4DLJ1 and related entries (UniProt Q15853)”, 0.996 ± 0.053.
For the target “B4E2Q0 and related entries (UniProt P98194)”, the NP40-soluble protein abundance stood at 1 ± 0.051.
On to “C9JBL1 and related entries (UniProt Q9Y6A9)”, for which the NP40-soluble protein abundance was 0.946 ± 0.018.
For the target “B4E1G1 and related entries (UniProt Q9BUN8)”, the NP40-soluble protein abundance came to 0.9824 ± 0.0037.
For “D6REA0 and related entries (UniProt O75879)”, the NP40-soluble protein abundance is 0.966 ± 0.018.
Turning to “C9JA28 and related entries (UniProt Q9UNL2)”, the NP40-soluble protein abundance came to 1.01 ± 0.014.
Take “C9J0E4 and related entries (UniProt P01040)”: the NP40-soluble protein abundance came to 0.986 ± 0.015.
With UniProt B4DLN1, the NP40-soluble protein abundance was 1.04 ± 0.053.
With “D6RHH4 and related entries (UniProt P63244)”, the NP40-soluble protein abundance worked out at 1.05 ± 0.018.
Turning to “C9JJN9 and related entries (UniProt Q8N3P4)”, the NP40-soluble protein abundance was 1.05 ± 0.056.
With “A9Z1X7 and related entries (UniProt Q8IYB3)”, the NP40-soluble protein abundance was found to be 1.01 ± 0.027.
Regarding “C9J2U0 and related entries (UniProt P24864)”, the NP40-soluble protein abundance was determined as 0.999 ± 0.0098.
As for “A8MT40 and related entries (UniProt Q8NCN5)”, the NP40-soluble protein abundance was determined as 1.02 ± 0.018.
As for UniProt A2RU67, the NP40-soluble protein abundance came to 0.9912 ± 0.005.
On the same count and under the same terms, the figure for YDJC (UniProt A8MPS7) is 0.996 ± 0.011; for “C9J713 and related entries (UniProt Q96IZ7)” it is 1.05 ± 0.021; for “C9JG32 and related entries (UniProt P43897)” it is 0.986 ± 0.021.
With “C4B7M2 and related entries (UniProt Q96JI7)”, the NP40-soluble protein abundance is 0.973 ± 0.038.
On the same count and under the same terms, the figure for “B7Z779 and related entries (UniProt Q96A25)” is 0.986 ± 0.014; for “B4E107 and related entries (UniProt O95260)” it is 0.9888 ± 0.009; for “A8K7Q2 and related entries (UniProt P11142)” it is 0.995 ± 0.022.
In the case of “B1AQ74 and related entries (UniProt Q6NSI4)”, the NP40-soluble protein abundance stood at 0.9777 ± 0.0062.
With “C9JLB7 and related entries (UniProt Q96HP4)”, the NP40-soluble protein abundance worked out at 0.999 ± 0.044.
For the target “A8MWD9 and related entries (UniProt P62308+A8MWD9)”, the NP40-soluble protein abundance was found to be 1.09 ± 0.024.
Turning to “C9JKQ7 and related entries (UniProt P22102)”, the NP40-soluble protein abundance is 1.01 ± 0.014.
As to UniProt B7ZLF3, the NP40-soluble protein abundance turned out to be 1 ± 0.058.
Turning to “D3DSM0 and related entries (UniProt P05107)”, the NP40-soluble protein abundance turned out to be 0.97 ± 0.027.
Turning to UNC119B (UniProt A6NIH7), the NP40-soluble protein abundance amounted to 0.985 ± 0.035.
Turning to UniProt A5PLN9 and related entries, the NP40-soluble protein abundance was 1.01 ± 0.072.
On the same count and under the same terms, under “D6RG18 and related entries (UniProt P51946)” stands 1.03 ± 0.018; under “C9J0I9 and related entries (UniProt Q86WB0)”, 0.9893 ± 0.0015.
In the case of “D6RGX2 and related entries (UniProt Q9NUQ7)”, the NP40-soluble protein abundance stood at 1.02 ± 0.0032.
For “C9JZB0 and related entries (UniProt Q9BT40)”, the NP40-soluble protein abundance was 1 ± 0.04.
As for “E5RGT2 and related entries (UniProt Q96MH6)”, the NP40-soluble protein abundance amounted to 1.01 ± 0.056.

The same experiment, now with this note: concentration: 0.5mM.
As to “B4DZS0 and related entries (UniProt O76075)”, the NP40-soluble protein abundance came out at 0.97 ± 0.052.
As to “D6RER5 and related entries (UniProt Q9NVA2)”, the NP40-soluble protein abundance was found to be 1 ± 0.023.
Turning to “C9J0Q5 and related entries (UniProt Q9Y618)”, the NP40-soluble protein abundance is 0.994 ± 0.043.
Regarding “C9J2V2 and related entries (UniProt Q9Y6K9)”, the NP40-soluble protein abundance stood at 1 ± 0.056.
For “B4DLJ1 and related entries (UniProt Q15853)”, the NP40-soluble protein abundance was found to be 1 ± 0.048.
Still for that read-out and setting: under “B4E2Q0 and related entries (UniProt P98194)” stands 0.979 ± 0.032; under “C9JBL1 and related entries (UniProt Q9Y6A9)”, 1.02 ± 0.018; under “B4E1G1 and related entries (UniProt Q9BUN8)”, 0.999 ± 0.014.
With “D6REA0 and related entries (UniProt O75879)”, the NP40-soluble protein abundance worked out at 0.9639 ± 0.0049.
The same measure, in the same setting: under “C9JA28 and related entries (UniProt Q9UNL2)” stands 1.03 ± 0.063; under “C9J0E4 and related entries (UniProt P01040)”, 1.07 ± 0.096; under UniProt B4DLN1, 0.981 ± 0.092.
Regarding “D6RHH4 and related entries (UniProt P63244)”, the NP40-soluble protein abundance is 0.989 ± 0.084.
With “C9JJN9 and related entries (UniProt Q8N3P4)”, the NP40-soluble protein abundance was found to be 1 ± 0.049.
As for “A9Z1X7 and related entries (UniProt Q8IYB3)”, the NP40-soluble protein abundance was 1.03 ± 0.031.
In the case of “C9J2U0 and related entries (UniProt P24864)”, the NP40-soluble protein abundance was 0.966 ± 0.064.
For “A8MT40 and related entries (UniProt Q8NCN5)”, the NP40-soluble protein abundance is 0.94 ± 0.097.
UniProt A2RU67: the NP40-soluble protein abundance amounted to 1.01 ± 0.021.
Regarding YDJC (UniProt A8MPS7), the NP40-soluble protein abundance was 0.964 ± 0.017.
Turning to “C9J713 and related entries (UniProt Q96IZ7)”, the NP40-soluble protein abundance worked out at 1.02 ± 0.056.
Consider “C9JG32 and related entries (UniProt P43897)”, for which the NP40-soluble protein abundance turned out to be 1.01 ± 0.044.
Consider “C4B7M2 and related entries (UniProt Q96JI7)”, for which the NP40-soluble protein abundance is 0.986 ± 0.052.
Same read-out and setting: the figure for “B7Z779 and related entries (UniProt Q96A25)” is 1.01 ± 0.044; for “B4E107 and related entries (UniProt O95260)” it is 1.01 ± 0.015; for “A8K7Q2 and related entries (UniProt P11142)” it is 1.02 ± 0.06.
With “B1AQ74 and related entries (UniProt Q6NSI4)”, the NP40-soluble protein abundance stood at 0.996 ± 0.019.
On the same count and under the same terms, under “C9JLB7 and related entries (UniProt Q96HP4)” stands 1 ± 0.1.
Regarding “A8MWD9 and related entries (UniProt P62308+A8MWD9)”, the NP40-soluble protein abundance turned out to be 1.07 ± 0.029.
On the same count and under the same terms, the figure for “C9JKQ7 and related entries (UniProt P22102)” is 1.01 ± 0.017; for UniProt B7ZLF3 it is 1.02 ± 0.041.
For the target “D3DSM0 and related entries (UniProt P05107)”, the NP40-soluble protein abundance was 0.976 ± 0.057.
On to UNC119B (UniProt A6NIH7), for which the NP40-soluble protein abundance amounted to 1.009 ± 0.0061.
For UniProt A5PLN9 and related entries, the NP40-soluble protein abundance stood at 0.967 ± 0.05.
Turning to “D6RG18 and related entries (UniProt P51946)”, the NP40-soluble protein abundance was 1.05 ± 0.054.
Turning to “C9J0I9 and related entries (UniProt Q86WB0)”, the NP40-soluble protein abundance was 1.01 ± 0.041.
Consider “D6RGX2 and related entries (UniProt Q9NUQ7)”, for which the NP40-soluble protein abundance stood at 0.994 ± 0.082.
Regarding “C9JZB0 and related entries (UniProt Q9BT40)”, the NP40-soluble protein abundance was 1.01 ± 0.076.
With “E5RGT2 and related entries (UniProt Q96MH6)”, the NP40-soluble protein abundance came to 1.01 ± 0.039.
